From publication doi:10.1101/2023.12.15.571801
No constants are given. Whether binding was seen depends on the method and setting. In cells and extracts the contact can be indirect. Some entries that bind do so weakly or less than the wild type.

The chains behind the UniProt entries cited, without tags or fusion partners.
UniProt P16370: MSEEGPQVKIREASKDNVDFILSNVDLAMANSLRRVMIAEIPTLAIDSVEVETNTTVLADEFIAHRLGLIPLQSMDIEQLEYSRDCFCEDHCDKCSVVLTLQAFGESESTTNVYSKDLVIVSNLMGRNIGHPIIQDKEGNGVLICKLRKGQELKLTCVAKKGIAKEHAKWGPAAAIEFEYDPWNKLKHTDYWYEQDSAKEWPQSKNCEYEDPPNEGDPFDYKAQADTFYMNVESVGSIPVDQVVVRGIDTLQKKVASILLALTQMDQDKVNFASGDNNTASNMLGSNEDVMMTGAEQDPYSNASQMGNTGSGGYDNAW

T1: Rpb4 (endogenous) (S. cerevisiae (endogenous in yeast extract)) (UniProt P20433)
T1 sequence: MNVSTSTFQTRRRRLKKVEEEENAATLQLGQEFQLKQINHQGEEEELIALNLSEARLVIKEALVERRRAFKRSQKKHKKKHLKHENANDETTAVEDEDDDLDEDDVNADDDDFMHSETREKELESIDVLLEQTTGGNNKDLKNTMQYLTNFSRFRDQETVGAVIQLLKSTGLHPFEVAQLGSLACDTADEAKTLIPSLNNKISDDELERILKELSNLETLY


How the values were obtained:
[1] = biological target: Rpb3 (S. cerevisiae (endogenous in yeast extract)) (UniProt P16370); assay: co-IP
[2] = biological target: T1, Rpb4 (endogenous) (S. cerevisiae (endogenous in yeast extract)); assay: co-IP

Row | binding [1] | binding [2] | Binder
1 | binds | binds | Hrr25-TAP (enzyme, UniProt P29295 1-494) MDLRVGRKFRIGRKIGSGSFGDIYHGTNLISGEEVAIKLESIRSRHPQLDYESRVYRYLSGGVGIPFIRWFGREGEYNAMVIDLLGPSLEDLFNYCHRRFSFKTVIMLALQMFCRIQYIHGRSFIHRDIKPDNFLMGVGRRGSTVHVIDFGLSKKYRDFNTHRHIPYRENKSLTGTARYASVNTHLGIEQSRRDDLESLGYVLIYFCKGSLPWQGLKATTKKQKYDRIMEKKLNVSVETLCSGLPLEFQEYMAYCKNLKFDEKPDYLFLARLFKDLSIKLEYHNDHLFDWTMLRYTKAMVEKQRDLLIEKGDLNANSNAASASNSTDNKSETFNKIKLLAMKKFPTHFHYYKNEDKHNPSPEEIKQQTILNNNAASSLPEELLNALDKGMENLRQQQPQQQVQSSQPQPQPQQLQQQPNGQRPNYYPEPLLQQQQRDSQEQQQQVPMATTRATQYPPQINSNNFNTNQASVPPQMRSNPQQPPQDKPAGQSIWL
2 | – | binds | Bur1 (enzyme, UniProt P23293 1-657) MSDNGSPAVLPKTEFNKYKIGKVKSTPAIQRDAKTNLTYIKLRKRSSEKVYGCTVFQNHYREDEKLGQGTFGEVYKGIHLETQRQVAMKKIIVSVEKDLFPITAQREITILKRLNHKNIIKLIEMVYDHSPDITNAASSNLHKSFYMILPYMVADLSGVLHNPRINLEMCDIKNMMLQILEGLNYIHCAKFMHRDIKTANILIDHNGVLKLADFGLARLYYGCPPNLKYPGGAGSGAKYTSVVVTRWYRAPELVLGDKQYTTAVDIWGVGCVFAEFFEKKPILQGKTDIDQGHVIFKLLGTPTEEDWAVARYLPGAELTTTNYKPTLRERFGKYLSETGLDFLGQLLALDPYKRLTAMSAKHHPWFKEDPLPSEKITLPTEESHEADIKRYKEEMHQSLSQRVPTAPRGHIVEKGESPVVKNLGAIPRGPKKDDASFLPPSKNVLAKPPPSKIRELHQNPRPYHVNSGYAKTAIPPPAAPAGVNRYGPNNSSRNNRFSGNSTAPNNSRNPVNRFHPETNVSSKYNKVPLPLGPQSRYQGNSNESRYKNSPNDSRYHNPRYVNKPETNFNRQPQKYSRQESNAPINKNYNPSNGSRNMAGDHHQGSRPSHPQFPISPSQGQHQLTSKPIEKKNGSFKDERAKPDESKEFQNSDIADLY
